Drawing on paper PMC12009987, this text covers binding for 1 substance.

Protein sequences, listed by entry. Tags and fused reporters are not part of them. Lines headed by an entry give the natural chain unless they say otherwise; changes in a name come on top.
UniProt P49025: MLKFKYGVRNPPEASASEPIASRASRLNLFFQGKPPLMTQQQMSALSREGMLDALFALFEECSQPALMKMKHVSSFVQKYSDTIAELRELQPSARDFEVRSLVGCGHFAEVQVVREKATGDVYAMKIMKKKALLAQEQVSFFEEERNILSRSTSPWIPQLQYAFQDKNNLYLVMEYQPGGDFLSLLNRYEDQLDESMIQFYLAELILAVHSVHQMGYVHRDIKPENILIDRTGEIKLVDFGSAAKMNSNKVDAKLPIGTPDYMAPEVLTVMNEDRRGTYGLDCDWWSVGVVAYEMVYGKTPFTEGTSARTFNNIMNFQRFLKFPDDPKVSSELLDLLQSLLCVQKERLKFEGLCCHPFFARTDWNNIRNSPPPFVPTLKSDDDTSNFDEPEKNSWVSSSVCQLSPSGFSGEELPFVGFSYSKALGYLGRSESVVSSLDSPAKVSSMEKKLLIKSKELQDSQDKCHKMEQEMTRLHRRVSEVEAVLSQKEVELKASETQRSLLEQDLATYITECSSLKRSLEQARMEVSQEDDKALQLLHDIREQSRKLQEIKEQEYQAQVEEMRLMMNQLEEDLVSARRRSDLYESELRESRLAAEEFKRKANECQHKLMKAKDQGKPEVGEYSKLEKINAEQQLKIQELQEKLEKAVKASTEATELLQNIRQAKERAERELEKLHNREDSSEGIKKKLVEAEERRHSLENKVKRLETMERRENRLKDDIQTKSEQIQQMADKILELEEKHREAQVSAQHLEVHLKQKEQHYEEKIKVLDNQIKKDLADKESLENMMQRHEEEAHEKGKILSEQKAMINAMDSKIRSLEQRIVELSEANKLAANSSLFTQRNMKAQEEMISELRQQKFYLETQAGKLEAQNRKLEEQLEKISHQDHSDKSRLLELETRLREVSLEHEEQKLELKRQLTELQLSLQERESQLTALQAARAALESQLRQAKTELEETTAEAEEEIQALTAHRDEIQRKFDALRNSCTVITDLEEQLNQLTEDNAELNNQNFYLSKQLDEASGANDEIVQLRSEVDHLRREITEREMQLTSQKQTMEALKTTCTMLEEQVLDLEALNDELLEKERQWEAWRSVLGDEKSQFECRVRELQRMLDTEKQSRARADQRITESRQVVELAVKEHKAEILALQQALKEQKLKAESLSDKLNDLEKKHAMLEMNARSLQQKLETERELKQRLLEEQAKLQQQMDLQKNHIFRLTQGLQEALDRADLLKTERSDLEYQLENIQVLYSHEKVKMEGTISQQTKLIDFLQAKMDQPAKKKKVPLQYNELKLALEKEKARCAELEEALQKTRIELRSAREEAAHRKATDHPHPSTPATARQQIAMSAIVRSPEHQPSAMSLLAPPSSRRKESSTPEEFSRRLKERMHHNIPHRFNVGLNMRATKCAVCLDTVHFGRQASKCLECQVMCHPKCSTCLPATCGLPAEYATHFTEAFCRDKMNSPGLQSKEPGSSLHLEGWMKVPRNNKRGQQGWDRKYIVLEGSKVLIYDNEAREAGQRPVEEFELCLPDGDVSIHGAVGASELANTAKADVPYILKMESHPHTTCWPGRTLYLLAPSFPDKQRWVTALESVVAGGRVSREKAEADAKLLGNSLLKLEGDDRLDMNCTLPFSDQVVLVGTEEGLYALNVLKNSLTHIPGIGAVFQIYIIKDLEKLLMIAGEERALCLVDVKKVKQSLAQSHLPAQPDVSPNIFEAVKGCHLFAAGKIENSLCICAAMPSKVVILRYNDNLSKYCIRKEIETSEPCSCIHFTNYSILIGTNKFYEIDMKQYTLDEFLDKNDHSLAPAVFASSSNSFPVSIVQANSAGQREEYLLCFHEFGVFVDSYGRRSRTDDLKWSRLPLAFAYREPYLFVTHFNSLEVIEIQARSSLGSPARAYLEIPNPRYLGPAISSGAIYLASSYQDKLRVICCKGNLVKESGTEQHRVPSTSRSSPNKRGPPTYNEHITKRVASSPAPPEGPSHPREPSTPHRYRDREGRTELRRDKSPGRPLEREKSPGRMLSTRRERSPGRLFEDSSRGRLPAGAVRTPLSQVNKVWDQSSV
UniProt Q9UBN7: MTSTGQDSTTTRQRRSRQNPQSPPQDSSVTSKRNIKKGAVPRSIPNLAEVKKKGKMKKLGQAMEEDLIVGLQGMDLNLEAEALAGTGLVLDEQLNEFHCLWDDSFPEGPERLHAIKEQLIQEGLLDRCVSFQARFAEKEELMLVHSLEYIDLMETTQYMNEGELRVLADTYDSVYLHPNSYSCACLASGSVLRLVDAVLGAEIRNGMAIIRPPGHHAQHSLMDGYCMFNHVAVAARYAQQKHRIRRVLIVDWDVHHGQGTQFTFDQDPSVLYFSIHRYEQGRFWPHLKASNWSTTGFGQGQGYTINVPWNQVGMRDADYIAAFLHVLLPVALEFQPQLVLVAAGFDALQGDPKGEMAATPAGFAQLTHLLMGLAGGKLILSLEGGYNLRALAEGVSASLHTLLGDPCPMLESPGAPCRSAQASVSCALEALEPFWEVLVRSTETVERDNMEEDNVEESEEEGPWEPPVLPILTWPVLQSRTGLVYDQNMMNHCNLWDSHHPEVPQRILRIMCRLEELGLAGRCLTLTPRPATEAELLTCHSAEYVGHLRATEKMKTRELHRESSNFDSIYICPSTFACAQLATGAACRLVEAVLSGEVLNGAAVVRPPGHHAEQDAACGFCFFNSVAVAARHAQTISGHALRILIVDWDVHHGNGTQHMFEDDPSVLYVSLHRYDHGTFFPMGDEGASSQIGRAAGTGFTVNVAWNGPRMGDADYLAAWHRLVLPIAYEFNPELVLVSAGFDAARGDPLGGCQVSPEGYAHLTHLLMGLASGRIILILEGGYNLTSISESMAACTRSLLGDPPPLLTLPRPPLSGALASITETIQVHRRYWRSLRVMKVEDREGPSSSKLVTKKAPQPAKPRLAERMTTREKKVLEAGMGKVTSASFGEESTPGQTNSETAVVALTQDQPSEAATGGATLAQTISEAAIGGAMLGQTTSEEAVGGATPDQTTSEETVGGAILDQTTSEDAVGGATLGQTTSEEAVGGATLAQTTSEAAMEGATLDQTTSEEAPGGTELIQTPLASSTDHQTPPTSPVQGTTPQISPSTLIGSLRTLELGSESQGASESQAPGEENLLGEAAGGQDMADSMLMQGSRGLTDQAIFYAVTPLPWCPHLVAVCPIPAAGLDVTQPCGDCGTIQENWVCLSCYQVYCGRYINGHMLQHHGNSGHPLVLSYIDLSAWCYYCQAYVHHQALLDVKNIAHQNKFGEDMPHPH

Results are given in words; binding and its absence hold for the method and conditions named. Binding seen in cells or lysates may run through a third protein. Binding can be weak; no strength is given.

This assay addresses Cherry-tagged Citron Kinase (CITK), full length (UniProt P49025). Briefly: co-IP; RFP-Trap affinity resin on lysates of 293T cells transfected with Cherry-tagged CITK or empty vector; mild lysis buffer (150 mM NaCl, 1 mM MgCl2, 50 mM Tris pH 7, 1% NP40, 5% glycerol); blots for RFP, HDAC6 and CYLD.

For the substance “histone deacetylase 6 (HDAC6), endogenous (from UniProt Q9UBN7 1-1215)”, the binding result is on record as “binds”.
